{"source": "paper PMC12503912", "about": "(Chemmedchem, 2025)", "assay": "general procedure: Fmoc solid-phase peptide synthesis; pre-loaded resins (H-Pro-2-chlorotrityl resin; Fmoc-Gly-Wang resin converted to isocyanide resin); HATU/HOAt/NMM", "conditions": "late stage modification step, formate salt"}
{"substance": "cemadotin", "values": [{"measurement": "final HPLC purity", "setting": "analytical RP-HPLC", "result": ">95", "unit": "%"}, {"measurement": "step yield", "result": 46, "unit": "% isolated yield"}]}
